Test results published in the supplement of paper PMC12823440, “Inhibitors supercharge kinase turnover through native proteolytic circuits” (Nature, 2025).
Some of the results follow. The calls rarely recur for the same compound in another form.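 Kinases, fused to nanoluciferase, were expressed in K562 cells; luminescence was measured every 4 h from 2 to 18 h as percent of control (DMSO = 100%, positive control = 0%). A time point is decreased if signal falls significantly (2 sigma). Hits were called by the authors by a rule that is not shown; the count of time points alone does not decide it.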

Chains of the proteins cited; added tags and fusions are not shown. Lines headed by an entry give the natural chain unless they say otherwise; changes in a name come on top.
UniProt Q9Y616: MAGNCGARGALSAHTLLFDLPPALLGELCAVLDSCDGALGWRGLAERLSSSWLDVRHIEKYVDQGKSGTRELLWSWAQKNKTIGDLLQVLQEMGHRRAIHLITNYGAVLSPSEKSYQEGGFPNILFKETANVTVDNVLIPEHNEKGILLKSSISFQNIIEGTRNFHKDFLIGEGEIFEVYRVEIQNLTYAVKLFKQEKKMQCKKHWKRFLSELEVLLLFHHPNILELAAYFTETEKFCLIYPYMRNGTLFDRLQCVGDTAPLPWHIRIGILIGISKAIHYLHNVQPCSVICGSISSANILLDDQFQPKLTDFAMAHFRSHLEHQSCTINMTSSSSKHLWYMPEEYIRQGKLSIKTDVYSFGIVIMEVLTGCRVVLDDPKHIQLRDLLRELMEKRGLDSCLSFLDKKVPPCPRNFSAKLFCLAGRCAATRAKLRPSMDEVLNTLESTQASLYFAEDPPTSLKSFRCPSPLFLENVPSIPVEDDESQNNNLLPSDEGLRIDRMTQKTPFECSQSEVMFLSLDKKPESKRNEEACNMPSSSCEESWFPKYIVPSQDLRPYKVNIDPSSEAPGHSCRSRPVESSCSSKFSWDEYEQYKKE
UniProt P23458: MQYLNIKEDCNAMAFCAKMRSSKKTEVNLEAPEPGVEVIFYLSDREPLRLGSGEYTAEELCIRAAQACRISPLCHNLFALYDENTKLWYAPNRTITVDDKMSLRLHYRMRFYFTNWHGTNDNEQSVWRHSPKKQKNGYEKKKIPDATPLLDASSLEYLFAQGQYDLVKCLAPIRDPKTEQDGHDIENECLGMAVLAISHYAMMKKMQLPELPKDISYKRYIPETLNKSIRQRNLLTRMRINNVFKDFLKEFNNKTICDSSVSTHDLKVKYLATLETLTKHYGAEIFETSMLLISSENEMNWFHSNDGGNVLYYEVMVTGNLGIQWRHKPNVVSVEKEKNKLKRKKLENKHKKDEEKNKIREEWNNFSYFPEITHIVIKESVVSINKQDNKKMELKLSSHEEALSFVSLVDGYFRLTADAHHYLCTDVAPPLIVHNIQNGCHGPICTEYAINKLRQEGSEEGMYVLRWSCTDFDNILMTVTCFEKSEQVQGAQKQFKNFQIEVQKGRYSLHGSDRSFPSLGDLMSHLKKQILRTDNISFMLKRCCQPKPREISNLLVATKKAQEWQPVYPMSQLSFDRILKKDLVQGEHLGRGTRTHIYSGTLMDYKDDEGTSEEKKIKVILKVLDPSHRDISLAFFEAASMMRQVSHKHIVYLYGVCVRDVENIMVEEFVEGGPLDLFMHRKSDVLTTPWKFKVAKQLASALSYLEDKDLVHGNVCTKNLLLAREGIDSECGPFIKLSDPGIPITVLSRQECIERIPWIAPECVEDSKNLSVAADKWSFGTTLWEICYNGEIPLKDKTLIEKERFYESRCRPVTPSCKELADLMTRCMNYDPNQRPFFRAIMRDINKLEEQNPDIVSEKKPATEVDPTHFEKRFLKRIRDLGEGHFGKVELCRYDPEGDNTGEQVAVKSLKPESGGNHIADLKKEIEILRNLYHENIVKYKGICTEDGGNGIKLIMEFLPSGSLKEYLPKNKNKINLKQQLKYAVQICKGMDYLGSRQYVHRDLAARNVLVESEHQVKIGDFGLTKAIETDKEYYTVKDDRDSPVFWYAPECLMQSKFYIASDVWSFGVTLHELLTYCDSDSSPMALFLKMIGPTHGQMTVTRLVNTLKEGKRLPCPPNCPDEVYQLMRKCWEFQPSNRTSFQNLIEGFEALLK
UniProt P06239: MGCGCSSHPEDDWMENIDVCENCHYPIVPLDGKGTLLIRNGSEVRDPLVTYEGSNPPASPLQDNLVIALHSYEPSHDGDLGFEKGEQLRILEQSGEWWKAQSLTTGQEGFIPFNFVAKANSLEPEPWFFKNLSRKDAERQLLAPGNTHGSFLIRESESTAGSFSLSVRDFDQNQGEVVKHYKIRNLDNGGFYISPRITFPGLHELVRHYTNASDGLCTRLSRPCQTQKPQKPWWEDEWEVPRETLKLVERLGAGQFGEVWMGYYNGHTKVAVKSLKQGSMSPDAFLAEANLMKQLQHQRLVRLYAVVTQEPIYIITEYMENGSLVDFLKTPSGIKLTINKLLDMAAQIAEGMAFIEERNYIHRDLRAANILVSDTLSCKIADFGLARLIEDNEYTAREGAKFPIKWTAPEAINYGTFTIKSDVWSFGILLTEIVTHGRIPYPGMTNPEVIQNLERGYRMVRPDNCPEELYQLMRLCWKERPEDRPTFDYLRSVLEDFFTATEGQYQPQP
UniProt P53667: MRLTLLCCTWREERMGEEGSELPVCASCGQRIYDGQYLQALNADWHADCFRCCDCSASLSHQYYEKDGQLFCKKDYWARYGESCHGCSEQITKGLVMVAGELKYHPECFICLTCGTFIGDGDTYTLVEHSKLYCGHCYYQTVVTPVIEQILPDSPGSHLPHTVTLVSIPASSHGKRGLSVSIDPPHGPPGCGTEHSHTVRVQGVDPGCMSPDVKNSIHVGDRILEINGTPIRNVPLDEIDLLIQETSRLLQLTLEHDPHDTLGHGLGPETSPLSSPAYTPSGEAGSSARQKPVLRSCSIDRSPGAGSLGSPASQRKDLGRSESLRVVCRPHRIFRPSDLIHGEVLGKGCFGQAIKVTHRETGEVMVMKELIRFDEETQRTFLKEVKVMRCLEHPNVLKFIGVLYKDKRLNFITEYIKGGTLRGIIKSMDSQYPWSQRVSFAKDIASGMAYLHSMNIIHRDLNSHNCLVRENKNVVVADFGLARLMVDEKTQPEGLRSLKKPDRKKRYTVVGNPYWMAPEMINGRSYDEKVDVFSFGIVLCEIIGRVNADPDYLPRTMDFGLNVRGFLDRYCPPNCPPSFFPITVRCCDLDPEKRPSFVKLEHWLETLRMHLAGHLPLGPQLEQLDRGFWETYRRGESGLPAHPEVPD
UniProt P07948: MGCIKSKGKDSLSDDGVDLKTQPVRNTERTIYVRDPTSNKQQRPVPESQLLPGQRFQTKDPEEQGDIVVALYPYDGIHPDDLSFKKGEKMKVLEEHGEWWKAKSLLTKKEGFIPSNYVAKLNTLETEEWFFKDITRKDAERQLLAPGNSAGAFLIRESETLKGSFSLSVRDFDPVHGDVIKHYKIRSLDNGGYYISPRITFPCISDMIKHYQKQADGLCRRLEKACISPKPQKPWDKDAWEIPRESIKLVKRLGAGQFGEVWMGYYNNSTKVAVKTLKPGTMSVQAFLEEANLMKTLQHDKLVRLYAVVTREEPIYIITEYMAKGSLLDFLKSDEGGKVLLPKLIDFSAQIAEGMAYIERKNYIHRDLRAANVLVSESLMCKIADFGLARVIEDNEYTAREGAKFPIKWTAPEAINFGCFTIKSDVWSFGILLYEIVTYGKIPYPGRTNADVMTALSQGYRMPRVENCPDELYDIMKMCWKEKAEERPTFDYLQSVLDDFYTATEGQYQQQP
UniProt P49137, whole entry, looked up: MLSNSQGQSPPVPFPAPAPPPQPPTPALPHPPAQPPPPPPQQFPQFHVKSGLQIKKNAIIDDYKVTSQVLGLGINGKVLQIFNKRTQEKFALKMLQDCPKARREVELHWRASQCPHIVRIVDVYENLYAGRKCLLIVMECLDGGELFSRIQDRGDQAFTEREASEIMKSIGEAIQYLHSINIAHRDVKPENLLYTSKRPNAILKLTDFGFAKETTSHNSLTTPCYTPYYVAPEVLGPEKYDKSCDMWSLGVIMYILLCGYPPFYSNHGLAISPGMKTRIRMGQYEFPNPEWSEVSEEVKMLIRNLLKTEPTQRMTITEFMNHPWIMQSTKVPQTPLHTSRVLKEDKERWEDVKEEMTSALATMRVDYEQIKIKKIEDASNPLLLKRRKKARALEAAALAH
UniProt Q9BUB5: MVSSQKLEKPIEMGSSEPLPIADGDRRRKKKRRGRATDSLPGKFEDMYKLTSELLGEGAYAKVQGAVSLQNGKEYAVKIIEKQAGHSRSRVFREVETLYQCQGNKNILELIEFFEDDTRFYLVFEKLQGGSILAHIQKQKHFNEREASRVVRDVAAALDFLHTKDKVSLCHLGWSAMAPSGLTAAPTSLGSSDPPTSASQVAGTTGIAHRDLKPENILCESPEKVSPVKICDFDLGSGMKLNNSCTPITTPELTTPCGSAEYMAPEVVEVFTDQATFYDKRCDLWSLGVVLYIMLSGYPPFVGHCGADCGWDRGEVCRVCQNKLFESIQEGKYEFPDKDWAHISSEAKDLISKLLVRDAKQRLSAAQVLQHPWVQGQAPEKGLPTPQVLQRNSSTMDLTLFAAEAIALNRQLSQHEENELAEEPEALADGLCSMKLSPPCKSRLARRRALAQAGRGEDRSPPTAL
UniProt Q16620, whole entry, looked up: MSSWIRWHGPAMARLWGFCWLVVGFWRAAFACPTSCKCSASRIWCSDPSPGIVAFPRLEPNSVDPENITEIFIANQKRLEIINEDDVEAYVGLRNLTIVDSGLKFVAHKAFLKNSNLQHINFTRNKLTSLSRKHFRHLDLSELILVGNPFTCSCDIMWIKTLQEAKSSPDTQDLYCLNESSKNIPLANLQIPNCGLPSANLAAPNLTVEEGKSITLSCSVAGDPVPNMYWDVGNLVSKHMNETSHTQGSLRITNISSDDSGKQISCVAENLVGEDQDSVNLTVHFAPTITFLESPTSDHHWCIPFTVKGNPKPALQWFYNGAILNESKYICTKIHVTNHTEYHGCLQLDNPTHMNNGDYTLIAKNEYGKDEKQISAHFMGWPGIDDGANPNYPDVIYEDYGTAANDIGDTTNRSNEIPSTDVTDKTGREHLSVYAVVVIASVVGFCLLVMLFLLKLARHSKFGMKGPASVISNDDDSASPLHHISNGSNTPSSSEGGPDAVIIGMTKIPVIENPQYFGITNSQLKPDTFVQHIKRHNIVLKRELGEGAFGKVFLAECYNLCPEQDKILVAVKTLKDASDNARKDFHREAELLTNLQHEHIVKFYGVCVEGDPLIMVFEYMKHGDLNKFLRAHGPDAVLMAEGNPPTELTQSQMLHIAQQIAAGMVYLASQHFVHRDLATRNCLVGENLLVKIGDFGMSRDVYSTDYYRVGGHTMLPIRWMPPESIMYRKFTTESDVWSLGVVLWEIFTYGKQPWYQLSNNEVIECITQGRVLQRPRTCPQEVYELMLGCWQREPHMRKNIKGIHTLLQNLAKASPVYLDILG
UniProt Q16288, whole entry, looked up: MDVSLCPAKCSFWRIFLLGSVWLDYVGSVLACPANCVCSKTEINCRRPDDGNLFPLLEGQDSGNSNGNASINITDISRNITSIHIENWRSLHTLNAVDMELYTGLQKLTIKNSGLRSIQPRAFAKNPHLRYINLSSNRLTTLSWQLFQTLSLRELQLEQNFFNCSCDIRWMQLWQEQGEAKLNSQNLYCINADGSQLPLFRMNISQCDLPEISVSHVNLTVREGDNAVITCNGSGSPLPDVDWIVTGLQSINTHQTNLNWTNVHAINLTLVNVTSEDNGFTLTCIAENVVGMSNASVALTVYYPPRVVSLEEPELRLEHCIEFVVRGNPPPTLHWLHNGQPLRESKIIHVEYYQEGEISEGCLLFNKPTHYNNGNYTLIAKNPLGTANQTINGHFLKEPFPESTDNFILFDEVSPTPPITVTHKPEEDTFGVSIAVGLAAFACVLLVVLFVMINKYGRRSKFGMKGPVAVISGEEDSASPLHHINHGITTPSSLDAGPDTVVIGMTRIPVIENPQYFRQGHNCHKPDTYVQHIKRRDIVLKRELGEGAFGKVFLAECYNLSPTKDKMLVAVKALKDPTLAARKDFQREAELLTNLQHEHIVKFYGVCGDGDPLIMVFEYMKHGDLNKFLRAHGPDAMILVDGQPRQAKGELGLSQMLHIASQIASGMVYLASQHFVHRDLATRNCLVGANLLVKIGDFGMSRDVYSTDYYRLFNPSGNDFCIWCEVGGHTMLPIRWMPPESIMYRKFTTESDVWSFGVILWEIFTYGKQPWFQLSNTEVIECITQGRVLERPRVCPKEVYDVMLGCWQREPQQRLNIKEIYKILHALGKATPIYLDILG
UniProt Q96KB5: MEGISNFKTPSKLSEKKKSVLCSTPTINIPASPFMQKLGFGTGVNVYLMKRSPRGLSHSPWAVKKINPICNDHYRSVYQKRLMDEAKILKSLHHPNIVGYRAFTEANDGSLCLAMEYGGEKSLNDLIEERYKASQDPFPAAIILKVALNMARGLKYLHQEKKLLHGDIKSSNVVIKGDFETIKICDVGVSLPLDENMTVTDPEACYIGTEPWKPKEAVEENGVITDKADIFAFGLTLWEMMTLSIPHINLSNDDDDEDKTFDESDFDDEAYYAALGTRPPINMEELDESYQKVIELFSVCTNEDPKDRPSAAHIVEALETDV

Tests used:
Test in all cases: kinase-Nluc reporter destabilization hit call (1 = scored as downregulated) (binary); higher = compound decreases kinase abundance
Conditions in all cases: K562; 2-18 h
IRAK3 = IRAK3 (UniProt Q9Y616)
JAK1 = JAK1 (UniProt P23458)
LCK = LCK (UniProt P06239)
LIMK1 = LIMK1 (UniProt P53667)
LIMK2 = LIMK2 (UniProt P53671)
LMTK2 = LMTK2 (UniProt Q8IWU2)
LYN = LYN (UniProt P07948)
MAP2K1 = MAP2K1 (UniProt Q02750)
MAP2K2 = MAP2K2 (UniProt P36507)
MAP4K2 = MAP4K2 (UniProt Q12851)
MAPK1 = MAPK1 (UniProt P28482)
MAPK4 = MAPK4 (UniProt P31152)
MAPKAPK2 = MAPKAPK2 (UniProt P49137)
MKNK1 = MKNK1 (UniProt Q9BUB5)
NTRK2 = NTRK2 (UniProt Q16620)
NTRK3 = NTRK3 (UniProt Q16288)
PAK4 = PAK4 (UniProt O96013)
PBK = PBK (UniProt Q96KB5)
PDGFRB = PDGFRB (UniProt P09619)
PDK1 = PDK1 (UniProt Q15118)

Measured: kinase-Nluc reporter destabilization hit call

CC(C)(O)c1cc2nc(-c3cnc(N)nc3)nc(N3CCOCC3)c2s1 (2.5 µM)
inactive: IRAK3 = 0 | JAK1 = 0 | LCK 0 | LIMK1 = 0 | LIMK2 = 0 | LMTK2 = 0 | LYN 0 | MAP2K1 = 0 | MAP2K2 = 0 | MAP4K2 = 0 | MAPK1 = 0 | MAPK4 = 0 | MAPKAPK2 = 0 | MKNK1 = 0 | NTRK2 = 0 | NTRK3 = 0 | PAK4 = 0 | PBK 0 | PDGFRB 0 | PDK1 = 0

Cc1cc(=O)[nH]c(=S)[nH]1 [Methylthiouracil] (10 µM)
inactive: IRAK3 = 0 | JAK1 = 0 | LCK 0 | LIMK1 = 0 | LIMK2 = 0 | LMTK2 = 0 | LYN 0 | MAP2K1 = 0 | MAP2K2 = 0 | MAP4K2 = 0 | MAPK1 = 0 | MAPK4 = 0 | MAPKAPK2 = 0 | MKNK1 = 0 | NTRK2 = 0 | NTRK3 = 0 | PAK4 = 0 | PBK 0 | PDGFRB 0 | PDK1 = 0

CC[C@H](C)[C@H](NC(=O)[C@H](CCCCN)NC(=O)[C@H](CC(C)C)NC(=O)[C@@H]1CCCN1C(=O)[C@H](CCC(=O)O)NC(=O)[C@H](Cc1ccc(O)cc1)NC(=O)[C@@H](NC(=O)[C@H](CO)NC(=O)CNC(=O)[C@H](CO)NC(=O)[C@H](CCCN=C(N)N)NC(=O)[C@H](CCCCN)NC(=O)[C@@H](NC(=O)[C@@H](N)CCCN=C(N)N)[C@@H](C)O)C(C)C)C(=O)O [Malantide] (10 µM)
inactive: IRAK3 = 0 | JAK1 = 0 | LCK 0 | LIMK1 = 0 | LIMK2 = 0 | LMTK2 = 0 | LYN 0 | MAP2K1 = 0 | MAP2K2 = 0 | MAP4K2 = 0 | MAPK1 = 0 | MAPK4 = 0 | MAPKAPK2 = 0 | MKNK1 = 0 | NTRK2 = 0 | NTRK3 = 0 | PAK4 = 0 | PBK 0 | PDGFRB 0 | PDK1 = 0

CN1CCC(c2ccccc2CC(C)(C)Nc2nc(N3CCOCC3)nc(-n3c(S(C)(=O)=O)nc4ccccc43)n2)CC1 (10 µM)
inactive: IRAK3 = 0 | JAK1 = 0 | LCK 0 | LIMK1 = 0 | LIMK2 = 0 | LMTK2 = 0 | LYN 0 | MAP2K1 = 0 | MAP2K2 = 0 | MAP4K2 = 0 | MAPK1 = 0 | MAPK4 = 0 | MAPKAPK2 = 0 | MKNK1 = 0 | NTRK2 = 0 | NTRK3 = 0 | PAK4 = 0 | PBK 0 | PDGFRB 0 | PDK1 = 0

Cc1cc(/C=C2\CC/C(=C\c3cc(C)c(O)c(C)c3)C2=O)cc(C)c1O [Pentagamavunon-1] (2.5 µM)
inactive: IRAK3 = 0 | JAK1 = 0 | LCK 0 | LIMK1 = 0 | LIMK2 = 0 | LMTK2 = 0 | LYN 0 | MAP2K1 = 0 | MAP2K2 = 0 | MAP4K2 = 0 | MAPK1 = 0 | MAPK4 = 0 | MAPKAPK2 = 0 | MKNK1 = 0 | NTRK2 = 0 | NTRK3 = 0 | PAK4 = 0 | PBK 0 | PDGFRB 0 | PDK1 = 0

CNC[C@@H](NC(=O)c1ccc(-c2nc([C@H]3CC[C@H](O)[C@@H](F)C3)cnc2N)cc1F)c1cc(F)cc(Br)c1 [Rineterkib] (10 µM)
inactive: IRAK3 = 0 | JAK1 = 0 | LCK 0 | LIMK1 = 0 | LIMK2 = 0 | LMTK2 = 0 | LYN 0 | MAP2K1 = 0 | MAP2K2 = 0 | MAP4K2 = 0 | MAPK1 = 0 | MAPK4 = 0 | MAPKAPK2 = 0 | MKNK1 = 0 | NTRK2 = 0 | NTRK3 = 0 | PAK4 = 0 | PBK 0 | PDGFRB 0 | PDK1 = 0

O=C1NCCSc2c1sc1ccc(O)cc21 (2.5 µM)
active: LMTK2 = 1
inactive: IRAK3 = 0 | JAK1 = 0 | LCK 0 | LIMK1 = 0 | LIMK2 = 0 | LYN 0 | MAP2K1 = 0 | MAP2K2 = 0 | MAP4K2 = 0 | MAPK1 = 0 | MAPK4 = 0 | MAPKAPK2 = 0 | MKNK1 = 0 | NTRK2 = 0 | NTRK3 = 0 | PAK4 = 0 | PBK 0 | PDGFRB 0 | PDK1 = 0

CCS(=O)(=O)c1ccc(Oc2cc(O[C@@H](C)CO)cc(C(=O)Nc3ccn(C)n3)c2)cn1 (10 µM)
inactive: IRAK3 = 0 | JAK1 = 0 | LCK 0 | LIMK1 = 0 | LIMK2 = 0 | LMTK2 = 0 | LYN 0 | MAP2K1 = 0 | MAP2K2 = 0 | MAP4K2 = 0 | MAPK1 = 0 | MAPK4 = 0 | MAPKAPK2 = 0 | MKNK1 = 0 | NTRK2 = 0 | NTRK3 = 0 | PAK4 = 0 | PBK 0 | PDGFRB 0 | PDK1 = 0

NC(=O)c1ccc2nc(-c3ccc(C4(N)CCC4)cc3)c(-c3ccccc3)n2n1 (10 µM)
inactive: IRAK3 = 0 | JAK1 = 0 | LCK 0 | LIMK1 = 0 | LIMK2 = 0 | LMTK2 = 0 | LYN 0 | MAP2K1 = 0 | MAP2K2 = 0 | MAP4K2 = 0 | MAPK1 = 0 | MAPK4 = 0 | MAPKAPK2 = 0 | MKNK1 = 0 | NTRK2 = 0 | NTRK3 = 0 | PAK4 = 0 | PBK 0 | PDGFRB 0 | PDK1 = 0

CNCCOc1ccccc1C(C)(C)Nc1nccn(-c2cc(C(=O)NC3CC3)ccc2C)c1=O [p38α inhibitor 2] (10 µM)
inactive: IRAK3 = 0 | JAK1 = 0 | LCK 0 | LIMK1 = 0 | LIMK2 = 0 | LMTK2 = 0 | LYN 0 | MAP2K1 = 0 | MAP2K2 = 0 | MAP4K2 = 0 | MAPK1 = 0 | MAPK4 = 0 | MAPKAPK2 = 0 | MKNK1 = 0 | NTRK2 = 0 | NTRK3 = 0 | PAK4 = 0 | PBK 0 | PDGFRB 0 | PDK1 = 0

Cn1cc(-c2cn3nccc3c(-c3cnn([C@]4(CC#N)C[C@@H](C#N)C4)c3)n2)cn1 (10 µM)
inactive: IRAK3 = 0 | JAK1 = 0 | LCK 0 | LIMK1 = 0 | LIMK2 = 0 | LMTK2 = 0 | LYN 0 | MAP2K1 = 0 | MAP2K2 = 0 | MAP4K2 = 0 | MAPK1 = 0 | MAPK4 = 0 | MAPKAPK2 = 0 | MKNK1 = 0 | NTRK2 = 0 | NTRK3 = 0 | PAK4 = 0 | PBK 0 | PDGFRB 0 | PDK1 = 0

O=C(Nc1cc(Cl)cc(Cl)c1)Nc1cc(Cl)cc(Cl)c1 (10 µM)
inactive: IRAK3 = 0 | JAK1 = 0 | LCK 0 | LIMK1 = 0 | LIMK2 = 0 | LMTK2 = 0 | LYN 0 | MAP2K1 = 0 | MAP2K2 = 0 | MAP4K2 = 0 | MAPK1 = 0 | MAPK4 = 0 | MAPKAPK2 = 0 | MKNK1 = 0 | NTRK2 = 0 | NTRK3 = 0 | PAK4 = 0 | PBK 0 | PDGFRB 0 | PDK1 = 0

COc1ccc(S(=O)(=O)N(CCO)c2ccccc2CN(C)CC=Cc2ccc(Cl)cc2)cc1 (2.5 µM)
inactive: IRAK3 = 0 | JAK1 = 0 | LCK 0 | LIMK1 = 0 | LIMK2 = 0 | LMTK2 = 0 | LYN 0 | MAP2K1 = 0 | MAP2K2 = 0 | MAP4K2 = 0 | MAPK1 = 0 | MAPK4 = 0 | MAPKAPK2 = 0 | MKNK1 = 0 | NTRK2 = 0 | NTRK3 = 0 | PAK4 = 0 | PBK 0 | PDGFRB 0 | PDK1 = 0

C[C@@H](Nc1cc(F)cc(F)c1)c1cc(C(=O)N(C)C)cc2c(=O)cc(N3CCOCC3)oc12 (10 µM)
inactive: IRAK3 = 0 | JAK1 = 0 | LCK 0 | LIMK1 = 0 | LIMK2 = 0 | LMTK2 = 0 | LYN 0 | MAP2K1 = 0 | MAP2K2 = 0 | MAP4K2 = 0 | MAPK1 = 0 | MAPK4 = 0 | MAPKAPK2 = 0 | MKNK1 = 0 | NTRK2 = 0 | NTRK3 = 0 | PAK4 = 0 | PBK 0 | PDGFRB 0 | PDK1 = 0

CCC(=O)N1CC[C@H](Nc2ncnc3c2CN(c2cnc(OC)c(C(F)(F)F)c2)CC3)C1 [Leniolisib] (10 µM)
inactive: IRAK3 = 0 | JAK1 = 0 | LCK 0 | LIMK1 = 0 | LIMK2 = 0 | LMTK2 = 0 | LYN 0 | MAP2K1 = 0 | MAP2K2 = 0 | MAP4K2 = 0 | MAPK1 = 0 | MAPK4 = 0 | MAPKAPK2 = 0 | MKNK1 = 0 | NTRK2 = 0 | NTRK3 = 0 | PAK4 = 0 | PBK 0 | PDGFRB 0 | PDK1 = 0

Cn1cc(-c2ccc3nnc(Sc4ccc5nn(C)cc5c4)n3n2)cn1 [c-Met inhibitor 1] (10 µM)
inactive: IRAK3 = 0 | JAK1 = 0 | LCK 0 | LIMK1 = 0 | LIMK2 = 0 | LMTK2 = 0 | LYN 0 | MAP2K1 = 0 | MAP2K2 = 0 | MAP4K2 = 0 | MAPK1 = 0 | MAPK4 = 0 | MAPKAPK2 = 0 | MKNK1 = 0 | NTRK2 = 0 | NTRK3 = 0 | PAK4 = 0 | PBK 0 | PDGFRB 0 | PDK1 = 0

CCn1c2ccccc2c2cc(Nc3ccnc(NCCCN4CCOCC4)n3)ccc21 (2.5 µM)
inactive: IRAK3 = 0 | JAK1 = 0 | LCK 0 | LIMK1 = 0 | LIMK2 = 0 | LMTK2 = 0 | LYN 0 | MAP2K1 = 0 | MAP2K2 = 0 | MAP4K2 = 0 | MAPK1 = 0 | MAPK4 = 0 | MAPKAPK2 = 0 | MKNK1 = 0 | NTRK2 = 0 | NTRK3 = 0 | PAK4 = 0 | PBK 0 | PDGFRB 0 | PDK1 = 0

2 consecutive records out of the list so far, for reference:
Cn1cc(-c2ccc3nnc(Sc4ccc5nn(C)cc5c4)n3n2)cn1 [c-Met inhibitor 1] (10 µM)
inactive: IRAK3 = 0 | JAK1 = 0 | LCK 0 | LIMK1 = 0 | LIMK2 = 0 | LMTK2 = 0 | LYN 0 | MAP2K1 = 0 | MAP2K2 = 0 | MAP4K2 = 0 | MAPK1 = 0 | MAPK4 = 0 | MAPKAPK2 = 0 | MKNK1 = 0 | NTRK2 = 0 | NTRK3 = 0 | PAK4 = 0 | PBK 0 | PDGFRB 0 | PDK1 = 0

CCn1c2ccccc2c2cc(Nc3ccnc(NCCCN4CCOCC4)n3)ccc21 (2.5 µM)
inactive: IRAK3 = 0 | JAK1 = 0 | LCK 0 | LIMK1 = 0 | LIMK2 = 0 | LMTK2 = 0 | LYN 0 | MAP2K1 = 0 | MAP2K2 = 0 | MAP4K2 = 0 | MAPK1 = 0 | MAPK4 = 0 | MAPKAPK2 = 0 | MKNK1 = 0 | NTRK2 = 0 | NTRK3 = 0 | PAK4 = 0 | PBK 0 | PDGFRB 0 | PDK1 = 0
